The values are deposited in ChEMBL (CHEMBL3988442, “University of Dundee, Small-Polar-MMV Screening Library” (2021)).

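Viability assay of Plasmodium falciparum sporozoites; the read-out is not stated. The concentration is filed as 10 mM, unlikely as a test dose, so the dose is not known. The record gives no direction; compounds that gave an IC50 in retests scored well above the rest, so higher reads as lower viability. Strong results were mostly tested again. Of about 34,000 compounds tested this way, about 280 (0.84%) reached 50% or more in at least one test.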

Each number is a percent effect as filed. The controls that fix the scale are not given in the record; negative values are as filed. The compounds are a random part of those screened. Two or more numbers in one place are separate tests of the same structure; such repeats can differ widely.

SMILES,effect
Cc1cc(CN(C)C2CCCN(Cc3noc(C)n3)C2)on1 (stereo not shown),8.25
[H][C@@]12CCN(S(=O)(=O)c3cccc(F)c3)C[C@]1(C(=O)NC)CCO2,-11.37
c1cc(CN2CCOCC3(CCNCC3)C2)ccn1,18.14
O=C(c1cncs1)N1CCC(c2cnccn2)CC1,12.89
Cc1cccc(CCC(=O)Nc2ccnn2C2CCS(=O)(=O)C2)c1 (stereo not shown),8.475
Cn1ccc2c(C(=O)N3CCN(C(=O)C4CCCC4)CC3)cccc21,0.6955 and 29.1 and -9.701
CC1CN(C(=O)c2ccn(-c3cccc(Cl)c3)n2)CCO1 (stereo not shown),-3.271
Cc1ccsc1C(=O)N1CCc2ncnc(NC(C)C)c2CC1,2.973
O=C(O)C(F)(F)F.O=C(O)C(F)(F)F.O=C(O)C(F)(F)F.[H][C@]12CCN(Cc3cccnc3)[C@@]1([H])CC[C@H](COCc1ccccn1)O2,-1.128
Cn1cc(C(=O)NCC2CCN(C(=O)NCC(F)(F)F)CC2)cn1,-10.98
N[C@@H]1c2ccccc2C2(CCN(C(=O)c3ccc(=O)[nH]c3)CC2)[C@H]1O,4.579
Cc1ccc(-c2nc(CN3CCCC3Cn3cc(C)cn3)no2)cc1 (stereo not shown),-11.03
CC1(C)Cc2cc(-c3cncn3CCNC3CCS(=O)(=O)C3)ccc2O1.Cl (stereo not shown),2.43
CC(C)NC(=O)N1Cc2nccn2CC(CN2CCCC2)C1.O=C(O)C(F)(F)F (stereo not shown),18.52
CN(C)Cc1cncc2c1CCN(Cc1ccoc1)C2.Cl.Cl.Cl,-27.63 and 2.674 and -24.16
CC(=O)N1CCc2nnc(C3CCCN3CC3CCCCC3)n2CC1 (stereo not shown),3.272
[H][C@@]12CN(C(=O)c3ccnnc3)C[C@]1([H])C(=O)N(Cc1cccc(F)c1)C2,2.259
CCc1nc2n(n1)CC(NCc1cc(OC)c3c(c1)OCO3)CC2 (stereo not shown),-3.921
O=C(Cc1cccc2ccccc12)N1CCC(Nc2cccnn2)CC1,-1.288
Cc1cccc(CN2CC3(CCNCC3)OCC2=O)n1,-29.21 and -7.441 and -31.41
Cc1ccc(N2CCCC(NCc3cnc(C)s3)C2)nn1 (stereo not shown),17.54
O=C(CCNc1ncccn1)NCCc1ccc(Cl)s1,-2.514
[H][C@@]12C[C@@H](C(=O)NCc3ccco3)CN(c3ncc(F)cn3)[C@]1([H])CCO2,-0.6745
Cc1ccsc1C(=O)N1CC2CC1(C(=O)NCc1ccco1)C2,3.935
[H][C@]12CC[C@@H](N(C)c3ccc(C)nn3)[C@@]1([H])CN(C(=O)C1CCOCC1)C2,14.11
CN(C)CC(=O)N1CCCCC1c1nc(N)ncc1-c1ccccc1 (stereo not shown),6.185
Cc1cccc(-c2nc(C)nn2CN2CCC3(CC2)OCCO3)c1,0.5549
CC(=O)Nc1c(C)noc1/C=C\c1ccc(C)c(S(=O)(=O)NC2CC2)c1,6.177
CN1Cc2ccccc2CC2(CCN(C(=O)N3CCOCC3)CC2)C1=O,9.503
CN1C(=O)CC(C(=O)O)C12CCN(Cc1ccc(Cl)cc1F)CC2 (stereo not shown),6.009
CCn1cc(CN2CCCN(C(=O)c3ccoc3)CC2)cn1,-1.122
CN1CCC(N(C)C[C@H]2CC[C@@H](Cc3ccc4occc4c3)O2)CC1,2.957
Cc1nc(CNC(=O)NCc2cccnc2N(C)C)cs1,5.762
CC(C)(C)CC(=O)N1[C@@H](c2ccco2)[C@@H](CO)C[C@]12CCCCNC2=O,-14.44
CC(NCc1c(C(C)C)nn(C)c1N(C)C)C(=O)NC1CCCC1.Cl (stereo not shown),-1.959
CCn1ccnc1CN1CCCn2nc(CNC(=O)C3CCC3)cc2C1,-3.596
Cc1cccc2[nH]c(C3CCN(C(=O)c4cnc(O)cc4O)CC3)nc12,6.053
C=C(Cl)CN(C)C1CCN(CCc2ccccn2)CC1,12.96
[H][C@@]12NC(=O)N[C@@H](c3ccc(C(=O)O)cc3)[C@]1([H])CCCO2,-8.676
O=C(Cc1csc(-c2ccco2)n1)N1CCN(CCO)CC1,-18.85
CSCCC(=O)N1CCCN(Cc2cnn(C(C)C)c2)CC1,12.15
CCn1ncnc1C1CC(=O)NCc2nc(N3CCOCC3)sc21 (stereo not shown),-4.476
O=C(O)C(F)(F)F.[H][C@@]12CCN(c3cnccn3)C[C@]1([H])CN(C(=O)c1cnccn1)C2,-4.174
CCC(=O)N1CCC2(CC1)c1nc[nH]c1CCN2S(C)(=O)=O,-10.97 and 16.92 and 10.29
Cc1ccc(N2CCC3(CCN(C(=O)N(C)C)CC3)CC2)nn1.O=C(O)C(F)(F)F,-21.41
CCC(C)[C@H](N)c1nnc(SCC(=O)Nc2ccc(Br)cc2)o1.Cl (stereo partly shown),-5.177
CC(C)OCCCNC(=O)CS(=O)(=O)Cc1ccc(Cl)c(Cl)c1,-1.145
COCC1c2nnn(CC3CC3)c2CCN1Cc1ccncc1.O=C(O)C(F)(F)F.O=C(O)C(F)(F)F (stereo not shown),-14.11
CN1CCN(CCO)C(=O)C12CCN(Cc1ccsc1)CC2.O=C(O)C(F)(F)F.O=C(O)C(F)(F)F,-3.921
Cc1ccc(C(=O)CCC(=O)N2CCC(c3nncn3C)CC2)cc1,5.56
O=C(COc1ccc(F)cc1F)N1CCOCC(O)(CN2CCCC2)C1 (stereo not shown),-2.855
CCO[C@H]1C[C@@H](O)C12CCN(C(=O)CCN1CCCC1=O)CC2,-34
CS(=O)(=O)NC1CCN(C(=O)NCc2ccccn2)CC1,-19.75
O=C(C1CC(=O)N(C2CCCC2)C1)N1CCN(CCn2cccc2)CC1 (stereo not shown),1.931
Cc1cccc(NC(=O)Cn2ncc(SCC(N)=O)c(Cl)c2=O)c1C,5.549
Cc1ccc(C(=O)N2Cc3c(CN4CCCCC4)nn(C)c3C2)cc1C.O=C(O)C(F)(F)F,-3.691
Cc1ccc(N2CCCC(NCc3ccc(Cl)o3)C2)nn1 (stereo not shown),1.418
COC(=O)c1sccc1S(=O)(=O)N1CCC(Oc2cccnn2)CC1,-3.188
CC(=O)Nc1ccccc1Sc1nc(Br)nn1C,0.6267
CN(CCc1ccc2c(c1)CCO2)CC1CCS(=O)(=O)C1 (stereo not shown),1.443
O=C(Cc1ccsc1)N1CCCC(c2n[nH]c3ncccc23)C1 (stereo not shown),5.823
Cc1nc2ccc(C(=O)N3CC[C@H](O)[C@@H](N4CCOCC4)CC3)cc2[nH]1,1.03
O=C(O)C(F)(F)F.O=C(O)C(F)(F)F.O=C(c1ccco1)N1CC[C@@H](N2CCOCC2)[C@@H]1Cc1ccncc1,7.726
COc1ccc2cc(C3CN(C(=O)COC(C)C)CCO3)ccc2c1 (stereo not shown),38.96 and 58.61 and 49.31
Cn1cccc1C(=O)Nc1cc(F)ccc1OCC1CCCO1 (stereo not shown),0.6541
CC(O)CN1CCN(C(=O)c2cnn(-c3ccccc3Cl)c2)CC1 (stereo not shown),-18.38
O=C(Nc1cc(CCC2CCN(CCO)CC2)ccn1)c1ccccn1,45.19 and 58.77 and 35.89
Cn1ccnc1-c1cn(CCCc2csc(N)n2)nn1,-1.791
O=C(O)C(F)(F)F.O=C(O)C(F)(F)F.[H][C@@]12COC[C@]1(CNC(=O)c1ccsc1)CN(Cc1cccc(C)n1)C2,4.139
CCN1CC(O)CN(C(=O)c2cccc(C(F)(F)F)c2)CC1=O (stereo not shown),-41.14
COc1cccc(COCC(=O)N2CCCC2Cn2cccn2)c1 (stereo not shown),5.068
O=C(O)C(F)(F)F.O=C(O)C(F)(F)F.[H][C@@]12C[C@H](C(=O)N3CCCCO3)CN(Cc3cccnc3)[C@]1([H])CCO2,-11.77
COc1ccc(OC)c(C(=O)N(C)Cc2nnc3ccccn23)c1,5.34
CC(=O)Nc1nc(SCc2ccc3c(c2)OCO3)ns1,-2.928
CC(=O)N1CCC(c2nccnc2Nc2ncc(C)s2)CC1,3.797
CC(=O)N1CCCC(c2ccc(Cc3ccccc3)cn2)C1 (stereo not shown),6.972
O=C(NCc1ccccn1)c1nnn(-c2ccc(Br)cc2)n1,-7.933
CC(C)c1cc(C(=O)NCCc2nc(-c3ccncc3)n[nH]2)[nH]n1,-1.347
Cc1cc(C(=O)N2CCCC2)ccc1NCCO,-16.35
CNC(=O)c1ccc(C(=O)N2CCCC2c2cnn(C)c2)cn1 (stereo not shown),-0.4075
CC(CCS(C)(=O)=O)NC(=O)NCc1ccc2c(c1)CCC2 (stereo not shown),1.599
CC(=O)N1CCN(C(=O)Nc2ccccc2)CC2(CC(=O)N(C)C2)C1 (stereo not shown),4.277
O=C(O)C(F)(F)F.[H][C@@]12C[C@@H](C)O[C@]1([H])CN(Cc1c(C)noc1C)C2,9.359

For reference, 11 entries once more:

| SMILES | effect |
|---|---|
| `CC(=O)Nc1c(C)noc1/C=C\c1ccc(C)c(S(=O)(=O)NC2CC2)c1` | 6.177 |
| `O=C(O)C(F)(F)F.O=C(O)C(F)(F)F.O=C(O)C(F)(F)F.[H][C@]12CCN(Cc3cccnc3)[C@@]1([H])CC[C@H](COCc1ccccn1)O2` | -1.128 |
| `c1cc(CN2CCOCC3(CCNCC3)C2)ccn1` | 18.14 |
| `CC(C)(C)CC(=O)N1[C@@H](c2ccco2)[C@@H](CO)C[C@]12CCCCNC2=O` | -14.44 |
| `Cc1ccc(N2CCCC(NCc3ccc(Cl)o3)C2)nn1` (stereo not shown) | 1.418 |
| `Cn1cc(C(=O)NCC2CCN(C(=O)NCC(F)(F)F)CC2)cn1` | -10.98 |
| `COc1ccc2cc(C3CN(C(=O)COC(C)C)CCO3)ccc2c1` (stereo not shown) | 38.96 and 58.61 and 49.31 |
| `CC(C)NC(=O)N1Cc2nccn2CC(CN2CCCC2)C1.O=C(O)C(F)(F)F` (stereo not shown) | 18.52 |
| `CC(O)CN1CCN(C(=O)c2cnn(-c3ccccc3Cl)c2)CC1` (stereo not shown) | -18.38 |
| `O=C(C1CC(=O)N(C2CCCC2)C1)N1CCN(CCn2cccc2)CC1` (stereo not shown) | 1.931 |
| `O=C(O)C(F)(F)F.O=C(O)C(F)(F)F.[H][C@@]12COC[C@]1(CNC(=O)c1ccsc1)CN(Cc1cccc(C)n1)C2` | 4.139 |